These are yes or no findings as the source states them, for the method shown. Some results given as binding are weak or reduced against the parent protein; the word gives no strength.
Target: soluble form of human recombinant TLR2 (extracellular domain Glu 21-Leu 590) (human) (UniProt O60603)
Experiment: other fluorescence titration; intrinsic tyrosine fluorescence of soluble TLR-2 (15 or 76 nM), excitation 277 nm, change at 335 nm; complexes preformed in 20 mM Tris-HCl, 200 mM NaCl, pH 8.0, 4°C, 1 hour, read at room temperature; hyperbolic fit, one single binding site model; both purified

Sequences of proteins named here, by UniProt entry; tags and fusion partners are left off. Residues count along the entry.
UniProt O60603, residues 21-590: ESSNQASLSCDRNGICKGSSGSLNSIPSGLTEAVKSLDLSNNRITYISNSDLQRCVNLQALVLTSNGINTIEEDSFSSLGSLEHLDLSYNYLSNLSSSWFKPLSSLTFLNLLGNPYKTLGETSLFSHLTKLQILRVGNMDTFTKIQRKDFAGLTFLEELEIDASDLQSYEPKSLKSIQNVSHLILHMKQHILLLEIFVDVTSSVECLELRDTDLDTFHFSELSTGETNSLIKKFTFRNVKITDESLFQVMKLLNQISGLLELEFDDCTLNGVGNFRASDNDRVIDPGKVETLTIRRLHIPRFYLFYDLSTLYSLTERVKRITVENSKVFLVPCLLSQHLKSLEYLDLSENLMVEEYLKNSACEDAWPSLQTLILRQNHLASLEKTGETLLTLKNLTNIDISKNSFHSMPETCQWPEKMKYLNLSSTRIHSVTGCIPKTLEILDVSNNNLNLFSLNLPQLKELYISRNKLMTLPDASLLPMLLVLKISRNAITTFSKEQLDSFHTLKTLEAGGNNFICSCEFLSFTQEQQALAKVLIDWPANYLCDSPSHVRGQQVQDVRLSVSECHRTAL

- binding: binds
Binder: CSKKKK (Pam2 (lipid part of the lipopeptide, as in the name Pam2CSK4)) [Pam2CSK4 lipopeptide]
